Measurements as given in the supplement of paper PMC10849652.
Some of the results follow.

Amino acid sequences for entries named in this document (tags omitted). A change or cut given only in a name is not applied to a line headed by its entry.
UniProt Q15067: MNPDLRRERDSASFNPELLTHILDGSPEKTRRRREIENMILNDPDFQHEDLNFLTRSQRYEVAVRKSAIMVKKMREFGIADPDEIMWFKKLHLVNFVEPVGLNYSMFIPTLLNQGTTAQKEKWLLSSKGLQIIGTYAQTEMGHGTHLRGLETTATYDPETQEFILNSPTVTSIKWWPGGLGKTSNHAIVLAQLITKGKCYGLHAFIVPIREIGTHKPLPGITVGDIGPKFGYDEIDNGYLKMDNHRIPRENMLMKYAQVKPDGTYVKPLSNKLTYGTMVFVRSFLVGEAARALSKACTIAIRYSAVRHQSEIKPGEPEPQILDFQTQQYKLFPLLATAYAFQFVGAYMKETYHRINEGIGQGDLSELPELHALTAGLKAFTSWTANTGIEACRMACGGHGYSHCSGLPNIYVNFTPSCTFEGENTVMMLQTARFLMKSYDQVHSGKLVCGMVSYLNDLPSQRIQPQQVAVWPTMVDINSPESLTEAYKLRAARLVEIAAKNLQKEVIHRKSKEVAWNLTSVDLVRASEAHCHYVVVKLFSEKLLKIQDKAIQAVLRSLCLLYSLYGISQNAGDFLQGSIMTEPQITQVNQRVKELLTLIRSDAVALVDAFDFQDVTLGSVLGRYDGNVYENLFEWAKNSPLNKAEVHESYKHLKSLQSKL
UniProt Q03154: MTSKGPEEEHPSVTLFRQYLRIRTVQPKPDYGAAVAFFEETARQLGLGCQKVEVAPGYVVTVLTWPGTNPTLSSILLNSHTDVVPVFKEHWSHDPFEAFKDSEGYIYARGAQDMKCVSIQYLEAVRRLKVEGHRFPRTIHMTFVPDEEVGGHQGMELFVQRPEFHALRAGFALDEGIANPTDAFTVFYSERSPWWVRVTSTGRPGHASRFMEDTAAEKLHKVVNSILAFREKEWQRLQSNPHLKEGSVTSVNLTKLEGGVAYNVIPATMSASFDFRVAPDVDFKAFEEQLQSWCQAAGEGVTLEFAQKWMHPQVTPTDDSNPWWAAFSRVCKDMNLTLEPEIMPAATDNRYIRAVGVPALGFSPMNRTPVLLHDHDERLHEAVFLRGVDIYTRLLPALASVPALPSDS
UniProt Q9NUQ8: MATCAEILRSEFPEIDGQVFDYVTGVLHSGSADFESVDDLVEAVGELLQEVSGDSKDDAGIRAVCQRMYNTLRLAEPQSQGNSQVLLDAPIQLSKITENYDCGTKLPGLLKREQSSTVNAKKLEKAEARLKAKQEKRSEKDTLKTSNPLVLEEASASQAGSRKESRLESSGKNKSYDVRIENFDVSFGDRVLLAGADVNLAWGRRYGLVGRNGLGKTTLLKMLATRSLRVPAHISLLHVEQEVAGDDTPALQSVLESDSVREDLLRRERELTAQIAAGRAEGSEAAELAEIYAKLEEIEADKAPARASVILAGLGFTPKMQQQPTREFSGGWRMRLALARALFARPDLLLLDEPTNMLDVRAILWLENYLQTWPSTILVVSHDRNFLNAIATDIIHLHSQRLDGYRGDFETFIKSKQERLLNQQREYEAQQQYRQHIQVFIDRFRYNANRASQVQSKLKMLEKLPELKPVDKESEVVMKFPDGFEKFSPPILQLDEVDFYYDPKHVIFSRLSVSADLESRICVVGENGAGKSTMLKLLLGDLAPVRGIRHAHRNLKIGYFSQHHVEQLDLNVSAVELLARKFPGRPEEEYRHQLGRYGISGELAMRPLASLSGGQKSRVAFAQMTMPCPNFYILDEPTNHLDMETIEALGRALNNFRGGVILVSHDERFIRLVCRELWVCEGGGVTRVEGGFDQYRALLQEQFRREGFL
UniProt P42765: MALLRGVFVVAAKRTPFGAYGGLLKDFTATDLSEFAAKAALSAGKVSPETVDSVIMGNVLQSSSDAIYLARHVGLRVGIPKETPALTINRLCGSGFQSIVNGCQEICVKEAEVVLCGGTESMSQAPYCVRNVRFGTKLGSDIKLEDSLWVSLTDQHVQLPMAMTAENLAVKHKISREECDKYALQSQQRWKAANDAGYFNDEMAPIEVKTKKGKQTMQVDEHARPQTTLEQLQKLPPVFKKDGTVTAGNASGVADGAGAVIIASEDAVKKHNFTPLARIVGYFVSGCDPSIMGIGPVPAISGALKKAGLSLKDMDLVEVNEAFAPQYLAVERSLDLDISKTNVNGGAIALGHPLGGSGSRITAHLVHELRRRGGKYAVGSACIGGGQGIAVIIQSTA
UniProt P12814, whole entry, looked up: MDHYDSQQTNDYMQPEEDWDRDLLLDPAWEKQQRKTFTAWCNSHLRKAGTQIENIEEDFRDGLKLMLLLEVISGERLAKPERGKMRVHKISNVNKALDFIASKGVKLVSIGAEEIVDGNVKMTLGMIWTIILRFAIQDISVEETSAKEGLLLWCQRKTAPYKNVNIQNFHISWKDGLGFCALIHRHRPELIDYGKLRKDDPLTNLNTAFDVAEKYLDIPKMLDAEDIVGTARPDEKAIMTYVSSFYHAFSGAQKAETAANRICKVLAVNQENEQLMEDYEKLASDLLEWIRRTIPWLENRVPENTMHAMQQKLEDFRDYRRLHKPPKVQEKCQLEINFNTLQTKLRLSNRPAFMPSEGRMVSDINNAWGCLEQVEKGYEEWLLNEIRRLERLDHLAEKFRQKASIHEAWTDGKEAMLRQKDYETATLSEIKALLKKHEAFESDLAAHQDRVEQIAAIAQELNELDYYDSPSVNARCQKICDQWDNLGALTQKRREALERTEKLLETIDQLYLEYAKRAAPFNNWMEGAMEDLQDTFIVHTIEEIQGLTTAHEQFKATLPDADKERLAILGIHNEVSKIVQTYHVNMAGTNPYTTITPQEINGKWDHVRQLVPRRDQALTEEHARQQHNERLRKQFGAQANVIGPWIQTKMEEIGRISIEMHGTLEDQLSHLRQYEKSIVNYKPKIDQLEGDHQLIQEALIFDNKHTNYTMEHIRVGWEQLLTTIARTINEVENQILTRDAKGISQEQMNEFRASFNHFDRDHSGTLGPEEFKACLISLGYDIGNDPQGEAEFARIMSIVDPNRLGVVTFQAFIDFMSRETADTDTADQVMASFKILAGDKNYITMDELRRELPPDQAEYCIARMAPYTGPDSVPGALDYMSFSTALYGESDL
UniProt Q9GZN1, whole entry, looked up: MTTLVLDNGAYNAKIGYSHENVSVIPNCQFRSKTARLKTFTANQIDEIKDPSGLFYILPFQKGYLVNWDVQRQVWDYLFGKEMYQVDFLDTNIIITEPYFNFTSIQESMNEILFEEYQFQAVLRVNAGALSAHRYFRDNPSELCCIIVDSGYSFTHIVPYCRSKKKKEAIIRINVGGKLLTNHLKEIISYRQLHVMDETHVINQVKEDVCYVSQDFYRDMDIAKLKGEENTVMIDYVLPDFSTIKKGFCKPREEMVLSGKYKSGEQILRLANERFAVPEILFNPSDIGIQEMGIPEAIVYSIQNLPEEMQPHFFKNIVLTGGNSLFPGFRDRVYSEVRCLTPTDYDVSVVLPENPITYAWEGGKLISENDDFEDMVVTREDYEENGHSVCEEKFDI
UniProt Q13443: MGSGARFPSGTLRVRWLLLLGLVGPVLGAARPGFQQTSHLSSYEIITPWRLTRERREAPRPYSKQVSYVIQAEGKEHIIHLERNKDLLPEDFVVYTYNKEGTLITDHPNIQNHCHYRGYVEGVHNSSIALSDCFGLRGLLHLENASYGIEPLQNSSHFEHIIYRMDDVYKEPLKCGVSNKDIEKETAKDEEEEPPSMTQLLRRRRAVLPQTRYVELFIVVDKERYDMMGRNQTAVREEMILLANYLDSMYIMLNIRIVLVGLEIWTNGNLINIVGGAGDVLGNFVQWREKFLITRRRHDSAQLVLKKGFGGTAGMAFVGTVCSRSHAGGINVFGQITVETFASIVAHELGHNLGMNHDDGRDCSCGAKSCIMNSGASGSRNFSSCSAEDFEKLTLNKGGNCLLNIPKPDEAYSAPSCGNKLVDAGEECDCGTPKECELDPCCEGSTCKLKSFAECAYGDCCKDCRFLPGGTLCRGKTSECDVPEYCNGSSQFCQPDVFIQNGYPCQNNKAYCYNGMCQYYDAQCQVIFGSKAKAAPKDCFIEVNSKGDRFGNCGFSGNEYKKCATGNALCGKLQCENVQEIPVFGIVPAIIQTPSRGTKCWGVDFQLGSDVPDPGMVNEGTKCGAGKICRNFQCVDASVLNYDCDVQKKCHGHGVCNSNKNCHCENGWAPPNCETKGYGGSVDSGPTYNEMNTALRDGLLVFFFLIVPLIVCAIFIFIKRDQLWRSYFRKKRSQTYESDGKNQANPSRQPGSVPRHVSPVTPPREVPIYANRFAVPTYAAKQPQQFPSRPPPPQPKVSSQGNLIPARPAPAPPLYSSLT
UniProt O00154: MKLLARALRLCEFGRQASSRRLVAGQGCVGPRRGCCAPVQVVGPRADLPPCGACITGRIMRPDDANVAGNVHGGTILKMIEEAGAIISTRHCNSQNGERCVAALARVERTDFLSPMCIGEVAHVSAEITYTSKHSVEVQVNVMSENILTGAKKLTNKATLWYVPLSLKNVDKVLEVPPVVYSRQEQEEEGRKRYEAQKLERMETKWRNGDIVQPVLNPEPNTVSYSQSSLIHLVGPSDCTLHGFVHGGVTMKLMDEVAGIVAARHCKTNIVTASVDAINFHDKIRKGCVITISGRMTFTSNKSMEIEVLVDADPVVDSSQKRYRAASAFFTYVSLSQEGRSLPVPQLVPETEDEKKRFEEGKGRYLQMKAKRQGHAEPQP
UniProt Q9NPJ3: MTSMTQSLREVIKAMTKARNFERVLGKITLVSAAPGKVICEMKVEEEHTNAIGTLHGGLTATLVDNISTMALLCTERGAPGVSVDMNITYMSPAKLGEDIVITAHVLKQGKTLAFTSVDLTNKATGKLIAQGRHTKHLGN
UniProt Q8NE71: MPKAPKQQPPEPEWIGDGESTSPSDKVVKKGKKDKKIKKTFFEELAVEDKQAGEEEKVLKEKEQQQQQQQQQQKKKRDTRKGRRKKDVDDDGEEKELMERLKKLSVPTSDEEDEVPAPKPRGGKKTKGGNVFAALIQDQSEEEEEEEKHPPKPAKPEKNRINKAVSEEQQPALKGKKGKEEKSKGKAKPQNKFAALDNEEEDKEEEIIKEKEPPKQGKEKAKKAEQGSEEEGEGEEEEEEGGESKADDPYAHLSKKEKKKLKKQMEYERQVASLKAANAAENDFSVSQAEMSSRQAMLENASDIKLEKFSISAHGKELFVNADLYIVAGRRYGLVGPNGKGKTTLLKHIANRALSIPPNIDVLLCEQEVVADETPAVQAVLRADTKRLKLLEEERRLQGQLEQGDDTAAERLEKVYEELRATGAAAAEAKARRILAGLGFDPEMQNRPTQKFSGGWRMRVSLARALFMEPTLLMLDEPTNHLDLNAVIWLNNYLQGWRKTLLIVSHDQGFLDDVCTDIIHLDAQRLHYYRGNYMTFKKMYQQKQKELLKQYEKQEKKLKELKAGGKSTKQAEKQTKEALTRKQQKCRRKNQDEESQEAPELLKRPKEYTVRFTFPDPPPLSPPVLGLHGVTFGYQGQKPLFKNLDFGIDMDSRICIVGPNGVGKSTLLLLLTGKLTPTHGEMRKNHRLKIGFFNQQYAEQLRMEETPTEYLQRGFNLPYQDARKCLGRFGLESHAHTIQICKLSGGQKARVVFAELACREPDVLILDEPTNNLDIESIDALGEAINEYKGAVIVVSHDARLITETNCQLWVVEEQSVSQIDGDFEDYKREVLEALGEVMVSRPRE
UniProt O43707, whole entry, looked up: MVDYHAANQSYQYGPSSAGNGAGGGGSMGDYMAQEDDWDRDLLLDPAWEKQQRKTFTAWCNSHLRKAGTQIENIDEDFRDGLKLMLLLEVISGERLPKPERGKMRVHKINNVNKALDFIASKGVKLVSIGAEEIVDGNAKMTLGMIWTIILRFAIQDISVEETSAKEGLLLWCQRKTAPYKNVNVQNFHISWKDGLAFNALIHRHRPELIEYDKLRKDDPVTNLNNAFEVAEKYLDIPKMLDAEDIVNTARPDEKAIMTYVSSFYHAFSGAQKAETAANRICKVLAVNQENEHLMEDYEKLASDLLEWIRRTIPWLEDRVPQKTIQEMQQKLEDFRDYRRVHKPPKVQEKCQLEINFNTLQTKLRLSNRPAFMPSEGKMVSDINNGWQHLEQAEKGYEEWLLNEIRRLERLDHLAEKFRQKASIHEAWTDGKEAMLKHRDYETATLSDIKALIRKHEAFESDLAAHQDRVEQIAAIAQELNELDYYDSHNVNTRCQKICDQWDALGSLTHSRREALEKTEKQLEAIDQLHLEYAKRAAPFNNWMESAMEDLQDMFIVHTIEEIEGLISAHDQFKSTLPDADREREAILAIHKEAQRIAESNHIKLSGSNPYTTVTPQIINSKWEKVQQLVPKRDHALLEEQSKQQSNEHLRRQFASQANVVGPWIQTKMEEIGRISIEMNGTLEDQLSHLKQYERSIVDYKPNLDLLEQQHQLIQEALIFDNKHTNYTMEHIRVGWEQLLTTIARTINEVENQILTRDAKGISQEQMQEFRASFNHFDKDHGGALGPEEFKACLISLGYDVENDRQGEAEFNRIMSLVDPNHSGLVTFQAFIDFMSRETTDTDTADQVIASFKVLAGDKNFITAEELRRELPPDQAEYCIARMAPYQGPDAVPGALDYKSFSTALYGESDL

What was measured:
Assay in all cases: log2 fold change, soluble protein after heating vs DMSO (PISA); higher = thermal stabilisation; K562 cells, 10 uM, 30 min; active = over 0.2 and 3.5 SD of the protein, either way, in both replicates (recomputed)
[1] = compound: CC[C@@H]1C(=O)N(C)c2cnc(Nc3ccc(C(=O)NC4CCN(C)CC4)cc3OC)nc2N1C1CCCC1
Outline: (§1)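 K562 cells at 2×10^6 cells/mL were treated with 10 μM compound for 30 min. Aliquots were heated for 3 min across 48°C-58°C, pooled, and extracted in PBS with 0.5% NP-40 at 4°C; soluble protein was the supernatant after 21,000xg for 90 min. Soluble protein was quantified by TMTpro 16plex LC-MS/MS with channel sums equalised, and reported as log2 fold change in thermal stability against DMSO controls, with values from duplicates.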

volasertib = compound: CC[C@@H]1C(=O)N(C)c2cnc(Nc3ccc(C(=O)N[C@H]4CC[C@H](N5CCN(CC6CC6)CC5)CC4)cc3OC)nc2N1C(C)C [volasertib]
Outline: as §1

[2] = compound: CC[C@H](C)N1C=C(C2=C(C=C(C=C21)C3=CN=C(C=C3)N4CCNCC4)C(=O)NCC5=C(C=C(NC5=O)C)C)C
Outline: as §1

epoxomicin = compound: CC[C@H](C)[C@@H](C(=O)N[C@@H]([C@@H](C)O)C(=O)N[C@@H](CC(C)C)C(=O)[C@]1(CO1)C)NC(=O)[C@H]([C@@H](C)CC)N(C)C(=O)C [epoxomicin]
Outline: as §1

[3] = compound: CCn1c(C(=O)N(C2CC2)C2CC2)cc2c3c(ncn3C)c(Nc3cc(C)n(C)n3)nc21
Outline: as §1

[4] = compound: CCn1cc(-c2ccnc3[nH]c(-c4cccc(CN(C)C)c4)cc23)c(-c2ccc(NC(=O)N(C)C)cc2)n1
Outline: as §1

[5] = compound: CN(C)CC(=O)Nc1ccc2[nH]c(=O)c3ccccc3c2c1
Outline: as §1

rosiglitazone = compound: CN(CCOC1=CC=C(C=C1)C[C@H]2C(=O)NC(=O)S2)C3=CC=CC=N3 (racemic) [rosiglitazone]
Outline: as §1

[6] = compound: CN1C2=C(C3=C1C(=O)N(N=C3)CC4=CC(=CC=C4)N)SC(=C2)S(=O)C
Outline: as §1

[7] = compound: CN1CCC(CNc2ccc3ncc(-c4cccc(OC(F)(F)F)c4)n3n2)CC1
Outline: as §1

saracatinib = compound: CN1CCN(CCOc2cc(OC3CCOCC3)c3c(Nc4c(Cl)ccc5c4OCO5)ncnc3c2)CC1 [saracatinib]
Outline: as §1

sotrastaurin = compound: CN1CCN(c2nc(C3=C(c4c[nH]c5ccccc45)C(=O)NC3=O)c3ccccc3n2)CC1 [sotrastaurin]
Outline: as §1

alvocidib = compound: CN1CC[C@H](c2c(O)cc(O)c3c(=O)cc(-c4ccccc4Cl)oc23)[C@H](O)C1 [alvocidib]
Outline: as §1

Tubastatin A = compound: CN1CCc2c(c3ccccc3n2Cc2ccc(C(=O)NO)cc2)C1 [Tubastatin A]
Outline: as §1

[8] = compound: CNC(=O)C1=CC=CC=C1NC2=NC(=NC=C2Cl)NC3=C(C=C(C=C3)N4CCOCC4)OC
Outline: as §1

defactinib = compound: CNC(=O)c1ccc(Nc2ncc(C(F)(F)F)c(NCc3nccnc3N(C)S(C)(=O)=O)n2)cc1 [defactinib]
Outline: as §1

rucaparib = compound: CNCc1ccc(-c2[nH]c3cc(F)cc4c3c2CCNC4=O)cc1 [rucaparib]
Outline: as §1

[9] = compound: CNc1nc(-c2ccc3c(N)n[nH]c3c2)cc(N2C[C@@H](C(=O)NC3CCCCC3)CC[C@H]2C)n1
Outline: as §1

encorafenib = compound: COC(=O)N[C@@H](C)CNc1nccc(-c2cn(C(C)C)nc2-c2cc(Cl)cc(NS(C)(=O)=O)c2F)n1 [encorafenib]
Outline: as §1

[10] = compound: COC(=O)[C@H](CCSC)NC(=O)C1=C(C=C(C=C1)NC[C@H](CS)N)C2=CC=CC=C2
Outline: as §1

Measured: log2 fold change

ACOT8 (UniProt O14734)
inactive: [1] 0.015 | volasertib 0.028 | [2] 0.004 | epoxomicin 0.047 | [3] 0.003 | [4] -0.004 | [5] -0.034 | rosiglitazone 0.02 | [6] -0.035 | [7] 0.085 | saracatinib 0.013 | sotrastaurin 0.07 | alvocidib -0.007 | Tubastatin A 0.023 | [8] 0.02 | defactinib -0.014 | rucaparib -0.02 | [9] -0.003 | encorafenib -0.031 | [10] 0.074

ACOX1 isoform 2 (UniProt Q15067)
inactive: [1] 0.052 | volasertib 0.068 | [2] -0.032 | epoxomicin 0.01 | [3] 0.081 | [4] -0.048 | [5] -0.002 | rosiglitazone 0.01 | [6] -0.056 | [7] 0.012 | saracatinib 0.04 | sotrastaurin 0.041 | alvocidib -0.048 | Tubastatin A 0.019 | [8] 0.038 | defactinib 0.004 | rucaparib -0.038 | [9] -0.004 | encorafenib -0.031 | [10] 0.052

ACTB, A0A2R8Y793
inactive: [1] -0.032 | volasertib -0.045 | [2] -0.008 | epoxomicin 0.042 | [3] -0.014 | [4] -0.015 | [5] -0.006 | rosiglitazone -0.02 | [6] -0.067 | [7] 0.077 | saracatinib 0.021 | sotrastaurin 0.013 | alvocidib -0.046 | Tubastatin A -0.034 | [8] -0.014 | defactinib -0.014 | rucaparib -0.012 | [9] -0.048 | encorafenib 0 | [10] 0.021

ACY1 (UniProt Q03154)
inactive: [1] 0.019 | volasertib 0.049 | [2] -0.026 | epoxomicin 0.029 | [3] -0.008 | [4] 0.004 | [5] 0.002 | rosiglitazone 0.023 | [6] -0.067 | [7] -0.028 | saracatinib 0.046 | sotrastaurin 0.021 | alvocidib -0.011 | Tubastatin A -0.04 | [8] -0.04 | defactinib -0.009 | rucaparib -0.05 | [9] -0.015 | encorafenib -0.006 | [10] 0.014

ABCF3 (UniProt Q9NUQ8)
inactive: [1] 0.043 | volasertib -0.192 | [2] 0.099 | epoxomicin -0.324 | [3] -0.097 | [4] -0.228 | [5] 0.017 | rosiglitazone -0.12 | [6] 0.446 | [7] 0.256 | saracatinib -0.104 | sotrastaurin -0.111 | alvocidib 0.202 | Tubastatin A 0.009 | [8] -0.088 | defactinib 0.073 | rucaparib 0.096 | [9] 0.168 | encorafenib 0.013 | [10] -0.024

Two successive entries from above, for reference:
ACOT8 (UniProt O14734)
inactive: [1] 0.015 | volasertib 0.028 | [2] 0.004 | epoxomicin 0.047 | [3] 0.003 | [4] -0.004 | [5] -0.034 | rosiglitazone 0.02 | [6] -0.035 | [7] 0.085 | saracatinib 0.013 | sotrastaurin 0.07 | alvocidib -0.007 | Tubastatin A 0.023 | [8] 0.02 | defactinib -0.014 | rucaparib -0.02 | [9] -0.003 | encorafenib -0.031 | [10] 0.074

ACOX1 isoform 2 (UniProt Q15067)
inactive: [1] 0.052 | volasertib 0.068 | [2] -0.032 | epoxomicin 0.01 | [3] 0.081 | [4] -0.048 | [5] -0.002 | rosiglitazone 0.01 | [6] -0.056 | [7] 0.012 | saracatinib 0.04 | sotrastaurin 0.041 | alvocidib -0.048 | Tubastatin A 0.019 | [8] 0.038 | defactinib 0.004 | rucaparib -0.038 | [9] -0.004 | encorafenib -0.031 | [10] 0.052

(list continues)

ACAA2 (UniProt P42765)
inactive: [1] 0.003 | volasertib 0.045 | [2] -0.027 | epoxomicin 0.026 | [3] -0.015 | [4] -0.049 | [5] -0.026 | rosiglitazone -0.009 | [6] 0.01 | [7] 0.047 | saracatinib 0.062 | sotrastaurin 0.03 | alvocidib -0.008 | Tubastatin A -0.002 | [8] -0.039 | defactinib 0.004 | rucaparib -0.009 | [9] -0.046 | encorafenib -0.043 | [10] 0.012

ACTN1 (UniProt P12814)
inactive: [1] 0.022 | volasertib 0.016 | [2] -0.02 | epoxomicin 0.013 | [3] 0.007 | [4] -0.033 | [5] -0.014 | rosiglitazone 0.011 | [6] -0.051 | [7] 0.028 | saracatinib 0.013 | sotrastaurin 0.04 | alvocidib -0.018 | Tubastatin A 0.015 | [8] -0.014 | defactinib -0.014 | rucaparib -0.087 | [9] -0.037 | encorafenib -0.014 | [10] 0.002

ACTR3 (UniProt P61158)
inactive: [1] 0.022 | volasertib -0.033 | [2] -0.029 | epoxomicin 0.05 | [3] 0.01 | [4] 0.001 | [5] -0.02 | rosiglitazone -0.052 | [6] -0.029 | [7] 0.083 | saracatinib 0.1 | sotrastaurin 0.014 | alvocidib 0.035 | Tubastatin A -0.027 | [8] 0.02 | defactinib -0.018 | rucaparib -0.038 | [9] -0.062 | encorafenib 0.001 | [10] 0.008

ACTR6 (UniProt Q9GZN1)
inactive: [1] 0.018 | volasertib -0.191 | [2] 0.071 | epoxomicin 0.084 | [3] 0.021 | [4] -0.007 | [5] 0.021 | rosiglitazone 0.152 | [6] 0.042 | [7] -0.018 | saracatinib 0.054 | sotrastaurin -0.086 | alvocidib -0.005 | Tubastatin A -0.067 | [8] 0.131 | defactinib -0.09 | rucaparib 0.009 | [9] -0.046 | encorafenib -0.005 | [10] -0.031

AAAS (UniProt Q9NRG9)
inactive: [1] -0.078 | volasertib -0.122 | [2] 0.022 | epoxomicin 0.095 | [3] -0.002 | [4] -0.053 | [5] 0.032 | rosiglitazone -0.008 | [6] -0.086 | [7] -0.028 | saracatinib -0.005 | sotrastaurin -0.009 | alvocidib -0.058 | Tubastatin A -0.001 | [8] 0.002 | defactinib -0.048 | rucaparib -0.046 | [9] 0.018 | encorafenib 0.007 | [10] -0.054

ADAM9 (UniProt Q13443)
inactive: [1] -0.009 | volasertib -0.025 | [2] -0.06 | epoxomicin 0.017 | [3] 0.012 | [4] 0.01 | [5] -0.02 | rosiglitazone -0.047 | [6] -0.031 | [7] -0.076 | saracatinib 0.048 | sotrastaurin 0.044 | alvocidib 0.006 | Tubastatin A -0.009 | [8] -0.022 | defactinib -0.01 | rucaparib -0.006 | [9] -0.046 | encorafenib 0.003 | [10] 0.024

ADA (UniProt P00813)
inactive: [1] -0.007 | volasertib 0.144 | [2] 0.03 | epoxomicin -0.009 | [3] 0.02 | [4] 0.017 | [5] -0.023 | rosiglitazone 0.029 | [6] 0.023 | [7] 0.033 | saracatinib -0.011 | sotrastaurin 0.047 | alvocidib 0.025 | Tubastatin A -0.023 | [8] -0.02 | defactinib 0 | rucaparib -0.086 | [9] -0.069 | encorafenib -0.019 | [10] 0.075

ACOT7 isoform 7 (UniProt O00154)
inactive: [1] 0.013 | volasertib 0.027 | [2] -0.023 | epoxomicin -0.036 | [3] -0.006 | [4] -0.041 | [5] 0.013 | rosiglitazone -0.015 | [6] -0.058 | [7] -0.03 | saracatinib 0.08 | sotrastaurin 0.018 | alvocidib -0.002 | Tubastatin A -0.014 | [8] -0.056 | defactinib -0.019 | rucaparib -0.026 | [9] -0.016 | encorafenib -0.014 | [10] 0.014

ACOT13 (UniProt Q9NPJ3)
inactive: [1] -0.028 | volasertib 0.042 | [2] -0.003 | epoxomicin -0.003 | [3] -0.01 | [4] -0.206 | [5] -0.015 | rosiglitazone -0.024 | [6] -0.078 | [7] 0.127 | saracatinib 0.063 | sotrastaurin -0.007 | alvocidib -0.014 | Tubastatin A 0.018 | [8] 0.014 | defactinib -0.032 | rucaparib 0.014 | [9] -0.027 | encorafenib -0.023 | [10] 0.028

ABCF1 (UniProt Q8NE71)
inactive: [1] 0.1 | volasertib 0.003 | [2] -0.002 | epoxomicin -0.119 | [3] 0 | [4] 0.027 | [5] -0.04 | rosiglitazone -0.047 | [6] 0.08 | [7] 0.12 | saracatinib -0.081 | sotrastaurin 0.015 | alvocidib 0.114 | Tubastatin A -0.005 | [8] 0.05 | defactinib 0.177 | rucaparib 0.213 | [9] 0.037 | encorafenib 0.08 | [10] -0.004

ACTN4 (UniProt O43707)
inactive: [1] 0.035 | volasertib -0.015 | [2] -0.027 | epoxomicin -0.063 | [3] 0.02 | [4] -0.014 | [5] -0.033 | rosiglitazone 0 | [6] -0.069 | [7] 0.095 | saracatinib 0.021 | sotrastaurin 0.013 | alvocidib 0.007 | Tubastatin A -0.013 | [8] 0.035 | defactinib 0 | rucaparib -0.04 | [9] -0.058 | encorafenib -0.047 | [10] 0.005
